Experimental findings from article PMC8123391 are described below.

By UniProt entry, the sequences of proteins in these tests, tags left out.
UniProt Q4ACU6: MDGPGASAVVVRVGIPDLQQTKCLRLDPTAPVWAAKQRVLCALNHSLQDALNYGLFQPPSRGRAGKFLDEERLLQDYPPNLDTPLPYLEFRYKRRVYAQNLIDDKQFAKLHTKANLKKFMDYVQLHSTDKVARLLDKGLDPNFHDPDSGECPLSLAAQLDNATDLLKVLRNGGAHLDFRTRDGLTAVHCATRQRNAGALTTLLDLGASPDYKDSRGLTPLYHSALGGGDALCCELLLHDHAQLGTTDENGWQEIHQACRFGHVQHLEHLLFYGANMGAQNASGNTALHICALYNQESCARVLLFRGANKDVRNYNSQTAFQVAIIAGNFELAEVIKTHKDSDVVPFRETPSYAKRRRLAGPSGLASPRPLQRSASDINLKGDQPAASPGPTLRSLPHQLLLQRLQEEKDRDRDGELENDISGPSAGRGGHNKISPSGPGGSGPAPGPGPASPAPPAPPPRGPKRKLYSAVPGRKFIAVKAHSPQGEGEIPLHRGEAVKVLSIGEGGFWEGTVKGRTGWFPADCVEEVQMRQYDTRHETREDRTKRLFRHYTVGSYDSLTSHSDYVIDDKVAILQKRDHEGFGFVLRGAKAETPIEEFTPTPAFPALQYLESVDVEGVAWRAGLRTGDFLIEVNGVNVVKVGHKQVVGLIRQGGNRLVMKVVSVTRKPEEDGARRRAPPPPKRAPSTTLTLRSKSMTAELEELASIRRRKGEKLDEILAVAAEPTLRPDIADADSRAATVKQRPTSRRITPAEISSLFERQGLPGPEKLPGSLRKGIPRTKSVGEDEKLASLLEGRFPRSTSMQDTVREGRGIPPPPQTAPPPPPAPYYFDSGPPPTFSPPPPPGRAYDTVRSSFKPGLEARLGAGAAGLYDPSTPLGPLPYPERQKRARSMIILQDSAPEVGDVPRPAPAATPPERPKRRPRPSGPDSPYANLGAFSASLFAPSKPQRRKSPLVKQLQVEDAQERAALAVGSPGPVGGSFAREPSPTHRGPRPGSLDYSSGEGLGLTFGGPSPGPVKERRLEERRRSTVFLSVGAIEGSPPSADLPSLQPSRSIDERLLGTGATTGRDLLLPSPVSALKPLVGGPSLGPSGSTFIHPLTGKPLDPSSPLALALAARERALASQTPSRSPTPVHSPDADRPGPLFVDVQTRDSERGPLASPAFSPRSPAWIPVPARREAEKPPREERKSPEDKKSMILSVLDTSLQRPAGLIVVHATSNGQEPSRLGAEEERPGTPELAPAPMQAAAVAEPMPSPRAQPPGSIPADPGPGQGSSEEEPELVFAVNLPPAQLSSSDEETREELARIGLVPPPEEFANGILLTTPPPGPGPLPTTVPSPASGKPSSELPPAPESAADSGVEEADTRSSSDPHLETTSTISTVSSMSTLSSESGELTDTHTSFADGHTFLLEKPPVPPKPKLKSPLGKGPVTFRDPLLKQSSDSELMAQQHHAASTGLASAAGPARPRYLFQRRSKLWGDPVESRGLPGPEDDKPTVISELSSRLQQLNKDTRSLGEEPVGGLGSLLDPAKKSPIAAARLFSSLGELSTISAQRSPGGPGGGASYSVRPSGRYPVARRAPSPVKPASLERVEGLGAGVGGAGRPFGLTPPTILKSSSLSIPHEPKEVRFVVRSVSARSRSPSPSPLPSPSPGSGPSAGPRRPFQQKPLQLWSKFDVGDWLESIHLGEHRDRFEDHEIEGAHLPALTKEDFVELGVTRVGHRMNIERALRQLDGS

In this assay the target is SH3 and multiple ankyrin repeat domains 3 (SHANK3) (mouse or rat (endogenous in brain lysate; legend says mice, text says rat)) (UniProt Q4ACU6). Description: co-IP; μMACS magnetic beads loaded with Shank3 antibodies; brain lysate; ZIP4 detected in input and eluate; empty beads as control.

No constants are given. Whether binding was seen depends on the method and setting. Binding seen in cells or lysates may run through a third protein. Some entries that bind do so weakly or less than the wild type.

B1: ZIP4 (protein, UniProt Q78IQ7 23-660)
chain: RPRNLLSLLALGQGALDRLELDGLLNTLVARVHCTDGPCEKCLSVENVLALGKPDKPQPAPESVLESRHIIYLSAAAALYLNNPEKTCKDIQAGLLASHVDDYLATLESPEAMTLGLSQLLQKIEAHAASQPTGEKTCVDLPQLLEEAEAAGVSKSAGLVLTALLDHVINGSCFQGLPSPQYFVDFVFRLHSSDPPNITLHELENLMHHLGVGGEDHSDHDDHGDHADHSHPDRKASHQDSELHTPHNSNSSVWDTLCLSAKDIMAVYGLSEEAGVSPQAWAQLTPALVQQQLSGACSPYPTIRIQDQLSQTERYLYGSLATLLICLCAVFGLLLLTCAKCSTATHYIMQTFLSLAVGALTGDALLHLIPKVLGLHTHGGEGHTHEEEVGVGGQATWRLLAVLGGFYIFFLFESFFNLLLPRDQDSEKDGPCSHGGHSHGISLQLAPSNLRQSKQTHESSRSDLVAEETPELLNPETRRLRAELRLLPYLITLGDAVHNFADGLAVGAAFSSSWKTGLATSLAVFCHELPHELGDFAALLHAGLSVKRALLLNLASALTAFAGLYVALAVGVGEEGEAWILAVATGLFLYVALCDMLPAMMNVRDQRPWLLFLLHNVGLLGGWTVLLLLSLYEDNITF
Turning to B1, the binding result is reported as “binds”.
